Taken from: PubChem BioAssay AID1159584 (Peter MacCallum Cancer Centre, 2016)
The whole screen tested about 18,000 reagents; this is an unselected part. Not all columns of the deposit are shown. Not stated in the record: the amount of reagent, the time to read-out.

Screen: 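Genes that CDH1-null MCF10A cells selectively depend on to survive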 (primary screen)
Cells: human MCF10A breast epithelial cells, parental and CDH1-null
Knock-down reagent: siRNA against human genes
Read-out: 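ATP luminescence (CellTiter-Glo) viability per line relative to mean mock wells over all plates, and the ratio of CDH1-null to parental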
Scale: CDH1-null / parental viability ratio: higher = CDH1-null cells survive relatively better than parental

Gene	CDH1-null / parental viability ratio
PRPF38A	1.42
ZFPL1	1.09
RALBP1	1.08
LHX4	0.85
AGRN	1.47
IL17REL	0.75
TPCN1	1.12
MAL	0.78
KRT15	1.24
SIRT6	1.08
PGCKA1	0.94
TRMT112	1.32
SCAMP2	0.93
CD300LD-AS1	0.97
FYB1	1.16
MESP2	1.08
TRRAP	0.97
PDPR	0.9

Ordered by “CDH1-null / parental viability ratio” (high to low): 2 of the entries above.
Gene	CDH1-null / parental viability ratio
CD300LD-AS1	0.97
SCAMP2	0.93

Next results follow.
Gene	CDH1-null / parental viability ratio
GCLC	0.95
TLL1	1.32
RHOD	0.87
TELO2	0.76
MYD88	0.9
ALOX5AP	0.88
NEURL3	0.96
MAP1LC3A	1
AIF1L	1.21
S100A10	1.35
